{
  "source": "patent US20050100919",
  "key": {"thrombin [1]": {"tested_on": "thrombin", "assay": "EMSA", "details": "only a fraction bound; 1 uM aptamer, 10 uM thrombin in TBB; purified native protein; protein details: purchased from Enzyme Research Lab; label: 32P; single-stranded DNA; variant of G15D"}, "thrombin [2]": {"tested_on": "thrombin", "assay": "competition with a labelled probe", "details": "decreased binding versus G15D4d/5d/6d, TBB; purified native protein; protein details: purchased from Enzyme Research Lab; label: 32P; single-stranded DNA; variant of G15D"}},
  "note": "Weaker means in comparison with the reference protein, sequence or condition of that experiment.",
  "data": [
    {"sequence": "CCAACCAGGTTGGTGTGGTTGG [G15D7d]", "values": [
      {"measurement": "binding result", "setting": "thrombin [1]", "value": "binds more weakly"},
      {"measurement": "binding result", "setting": "thrombin [2]", "value": "binds more weakly"}
    ]}
  ]
}
